The values below come from publication PMC6359055.

The chains behind the UniProt entries cited, without tags or fusion partners.
UniProt O00506: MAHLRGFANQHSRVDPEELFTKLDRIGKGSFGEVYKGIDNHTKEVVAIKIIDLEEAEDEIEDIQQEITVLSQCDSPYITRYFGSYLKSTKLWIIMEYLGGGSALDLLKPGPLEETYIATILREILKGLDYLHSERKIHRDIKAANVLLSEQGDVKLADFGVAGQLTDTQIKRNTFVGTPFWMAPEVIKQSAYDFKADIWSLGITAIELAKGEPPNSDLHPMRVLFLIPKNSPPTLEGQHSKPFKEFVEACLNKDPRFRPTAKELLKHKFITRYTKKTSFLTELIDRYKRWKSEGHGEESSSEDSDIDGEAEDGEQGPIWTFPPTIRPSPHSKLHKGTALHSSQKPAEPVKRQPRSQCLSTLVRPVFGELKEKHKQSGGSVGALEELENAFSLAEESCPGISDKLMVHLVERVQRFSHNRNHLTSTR
UniProt P08047: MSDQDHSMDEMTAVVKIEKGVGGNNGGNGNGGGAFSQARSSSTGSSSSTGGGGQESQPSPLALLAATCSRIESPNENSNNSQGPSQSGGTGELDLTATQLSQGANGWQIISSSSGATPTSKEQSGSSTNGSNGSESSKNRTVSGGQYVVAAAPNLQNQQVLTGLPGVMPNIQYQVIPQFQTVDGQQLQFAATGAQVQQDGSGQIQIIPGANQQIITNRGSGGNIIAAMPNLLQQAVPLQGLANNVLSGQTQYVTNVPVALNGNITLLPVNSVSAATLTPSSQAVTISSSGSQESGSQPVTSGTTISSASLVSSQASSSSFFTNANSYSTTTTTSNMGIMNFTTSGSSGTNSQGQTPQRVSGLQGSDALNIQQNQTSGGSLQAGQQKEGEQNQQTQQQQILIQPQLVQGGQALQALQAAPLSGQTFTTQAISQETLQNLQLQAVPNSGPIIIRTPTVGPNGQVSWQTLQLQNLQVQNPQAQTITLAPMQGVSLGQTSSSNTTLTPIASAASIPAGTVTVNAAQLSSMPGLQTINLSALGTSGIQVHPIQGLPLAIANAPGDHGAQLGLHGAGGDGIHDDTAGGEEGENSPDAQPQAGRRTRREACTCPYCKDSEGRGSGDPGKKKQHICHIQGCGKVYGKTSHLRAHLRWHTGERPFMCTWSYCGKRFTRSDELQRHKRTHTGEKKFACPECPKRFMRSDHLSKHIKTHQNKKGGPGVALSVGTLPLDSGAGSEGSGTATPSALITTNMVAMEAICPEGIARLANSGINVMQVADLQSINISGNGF
UniProt P38936: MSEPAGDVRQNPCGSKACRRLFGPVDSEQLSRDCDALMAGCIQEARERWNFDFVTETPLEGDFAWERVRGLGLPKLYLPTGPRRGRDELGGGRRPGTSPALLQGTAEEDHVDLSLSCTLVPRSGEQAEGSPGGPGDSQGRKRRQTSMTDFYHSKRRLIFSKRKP

One assay addresses V5-hYSK1 (human) (UniProt O00506). Briefly: co-IP; lysates (200 ug) of transfected cells in NET-NL buffer (50 mM Tris pH 7.5, 5 mM EDTA, 150 mM NaCl, 1 mM DTT, 0.01% NP-40); immunoprecipitation with anti-hYSK1 or anti-SP-1 overnight at 4 C, protein A/G-agarose; western blot for Myc, V5, HA. Background: Immunoblotting shows a protein as a band on a membrane.
For the next assay, the target named is GST-hYSK1 (human) (UniProt O00506). Briefly: pull-down; GST or GST-YSK1 bound to Sepharose beads incubated with in vitro translated 35S-Met-labeled p21; washed three times; 15% SDS-PAGE, autoradiography; only the target purified.
In another assay the target is HA-SP-1 (UniProt P08047). Briefly: co-IP; lysates (200 ug) of transfected cells in NET-NL buffer (50 mM Tris pH 7.5, 5 mM EDTA, 150 mM NaCl, 1 mM DTT, 0.01% NP-40); immunoprecipitation with anti-hYSK1 or anti-SP-1 overnight at 4 C, protein A/G-agarose; western blot for Myc, V5, HA.

No constants are given. Whether binding was seen depends on the method and setting. Binding seen in cells or lysates may run through a third protein. Some binding calls cover weakened binding; strength is not graded here.

For the substance HA-SP-1 (from UniProt P08047 1-785), in the assay with V5-hYSK1 (human), the binding entry is listed as “no binding”.

Regarding “35S-labeled p21^WAF1/Cip1 (from UniProt P38936 1-164)”, the binding entry with GST-hYSK1 (human) is “binds”.

As for “V5-hYSK1 (from UniProt O00506 1-426) (enzyme)”, in the assay with HA-SP-1, the binding entry is recorded as “no binding”.

“Myc-p21^WAF1/Cip1 (from UniProt P38936 1-164)”: the binding result in the assay with HA-SP-1 and with V5-hYSK1 (human) was “binds” in each case.
